Experimental findings from article PMC12579238 are described below.

These are yes or no findings as the source states them, for the method shown. In cells and extracts the contact can be indirect. Here binding means that the protein was enriched with, or labelled near, the bait; the list need not be complete.

The test concerns the target T1, CLN7 (human (endogenous in SH-SY5Y)) (UniProt Q8NHS3).
T1 sequence: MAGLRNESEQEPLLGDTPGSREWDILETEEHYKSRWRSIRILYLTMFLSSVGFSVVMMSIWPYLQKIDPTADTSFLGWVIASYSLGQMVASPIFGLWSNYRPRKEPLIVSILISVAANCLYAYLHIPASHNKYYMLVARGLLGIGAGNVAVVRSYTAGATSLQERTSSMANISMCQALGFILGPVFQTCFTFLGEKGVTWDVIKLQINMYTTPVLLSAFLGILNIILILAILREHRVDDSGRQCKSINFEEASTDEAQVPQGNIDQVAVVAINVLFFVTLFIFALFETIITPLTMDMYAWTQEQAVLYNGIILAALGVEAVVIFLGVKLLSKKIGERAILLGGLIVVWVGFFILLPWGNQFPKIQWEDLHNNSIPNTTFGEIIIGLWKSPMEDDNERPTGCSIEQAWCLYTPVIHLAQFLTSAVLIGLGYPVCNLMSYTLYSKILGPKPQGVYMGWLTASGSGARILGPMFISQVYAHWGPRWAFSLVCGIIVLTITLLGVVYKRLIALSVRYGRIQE
Nature of the test: affinity purification with mass spectrometry; endogenous CLN7 immunoprecipitated from 2.5 mg SH-SY5Y lysate with a polyclonal anti-CLN7 antibody raised against L9 (351-421aa, Proteintech) on G-sepharose beads; IgG as non-specific binding control; 4 independent replicates; cells under steady state culture conditions.

B1: MYBBP1A (protein, UniProt Q9BQG0 1-1328)
chain: MESRDPAQPMSPGEATQSGARPADRYGLLKHSREFLDFFWDIAKPEQETRLAATEKLLEYLRGRPKGSEMKYALKRLITGLGVGRETARPCYSLALAQLLQSFEDLPLCSILQQIQEKYDLHQVKKAMLRPALFANLFGVLALFQSGRLVKDQEALMKSVKLLQALAQYQNHLQEQPRKALVDILSEVSKATLQEILPEVLKADLNIILSSPEQLELFLLAQQKVPSKLKKLVGSVNLFSDENVPRLVNVLKMAASSVKKDRKLPAIALDLLRLALKEDKFPRFWKEVVEQGLLKMQFWPASYLCFRLLGAALPLLTKEQLHLVMQGDVIRHYGEHVCTAKLPKQFKFAPEMDDYVGTFLEGCQDDPERQLAVLVAFSSVTNQGLPVTPTFWRVVRFLSPPALQGYVAWLRAMFLQPDLDSLVDFSTNNQKKAQDSSLHMPERAVFRLRKWIIFRLVSIVDSLHLEMEEALTEQVARFCLFHSFFVTKKPTSQIPETKHPFSFPLENQAREAVSSAFFSLLQTLSTQFKQAPGQTQGGQPWTYHLVQFADLLLNHSHNVTTVTPFTAQQRQAWDRMLQTLKELEAHSAEARAAAFQHLLLLVGIHLLKSPAESCDLLGDIQTCIRKSLGEKPRRSRTKTIDPQEPPWVEVLVEILLALLAQPSHLMRQVARSVFGHICSHLTPRALQLILDVLNPETSEDENDRVVVTDDSDERRLKGAEDKSEEGEDNRSSESEEESEGEESEEEERDGDVDQGFREQLMTVLQAGKALGGEDSENEEELGDEAMMALDQSLASLFAEQKLRIQARRDEKNKLQKEKALRRDFQIRVLDLVEVLVTKQPENALVLELLEPLLSIIRRSLRSSSSKQEQDLLHKTARIFTHHLCRARRYCHDLGERAGALHAQVERLVQQAGRQPDSPTALYHFNASLYLLRVLKGNTAEGCVHETQEKQKAGTDPSHMPTGPQAASCLDLNLVTRVYSTALSSFLTKRNSPLTVPMFLSLFSRHPVLCQSLLPILVQHITGPVRPRHQACLLLQKTLSMREVRSCFEDPEWKQLMGQVLAKVTENLRVLGEAQTKAQHQQALSSLELLNVLFRTCKHEKLTLDLTVLLGVLQGQQQSLQQGAHSTGSSRLHDLYWQAMKTLGVQRPKLEKKDAKEIPSATQSPISKKRKKKGFLPETKKRKKRKSEDGTPAEDGTPAATGGSQPPSMGRKKRNRTKAKVPAQANGTPTTKSPAPGAPTRSPSTPAKSPKLQKKNQKPSQVNGAPGSPTEPAGQKQHQKALPKKGVLGKSPLSALARKKARLSLVIRSPSLLQSGAKKKAQVRKAGKP
As to B1, the binding result is recorded as “binds”.

B2: MYEF2 (protein, UniProt Q9P2K5 1-600)
chain: MADANKAEVPGATGGDSPHLQPAEPPGEPRREPHPAEAEKQQPQHSSSSNGVKMENDESAKEEKSDLKEKSTGSKKANRFHPYSKDKNSGAGEKKGPNRNRVFISNIPYDMKWQAIKDLMREKVGEVTYVELFKDAEGKSRGCGVVEFKDEEFVKKALETMNKYDLSGRPLNIKEDPDGENARRALQRTGGSFPGGHVPDMGSGLMNLPPSILNNPNIPPEVISNLQAGRLGSTIFVANLDFKVGWKKLKEVFSIAGTVKRADIKEDKDGKSRGMGTVTFEQAIEAVQAISMFNGQFLFDRPMHVKMDDKSVPHEEYRSHDGKTPQLPRGLGGIGMGLGPGGQPISASQLNIGGVMGNLGPGGMGMDGPGFGGMNRIGGGIGFGGLEAMNSMGGFGGVGRMGELYRGAMTSSMERDFGRGDIGINQGFGDSFGRLGSAMIGGFAGRIGSSNMGPVGSGISGGMGSMNSVTGGMGMGLDRMSSSFDRMGPGIGAILERSIDMDRGFLSGPMGSGMRERIGSKGNQIFVRNLPFDLTWQKLKEKFSQCGHVMFAEIKMENGKSKGCGTVRFDSPESAEKACRIMNGIKISGREIDVRLDRNA
With B2, the binding entry is “binds”.

B3: MED23 (protein, UniProt Q9ULK4 1-1368)
chain: METQLQSIFEEVVKTEVIEEAFPGMFMDTPEDEKTKLISCLGAFRQFWGGLSQESHEQCIQWIVKFIHGQHSPKRISFLYDCLAMAVETGLLPPRLVCESLINSDTLEWERTQLWALTFKLVRKIIGGVDYKGVRDLLKVILEKILTIPNTVSSAVVQQLLAAREVIAYILERNACLLPAYFAVTEIRKLYPEGKLPHWLLGNLVSDFVDTFRPTARINSICGRCSLLPVVNNSGAICNSWKLDPATLRFPLKGLLPYDKDLFEPQTALLRYVLEQPYSRDMVCNMLGLNKQHKQRCPVLEDQLVDLVVYAMERSETEEKFDDGGTSQLLWQHLSSQLIFFVLFQFASFPHMVLSLHQKLAGRGLIKGRDHLMWVLLQFISGSIQKNALADFLPVMKLFDLLYPEKEYIPVPDINKPQSTHAFAMTCIWIHLNRKAQNDNSKLQIPIPHSLRLHHEFLQQSLRNKSLQMNDYKIALLCNAYSTNSECFTLPMGALVETIYGNGIMRIPLPGTNCMASGSITPLPMNLLDSLTVHAKMSLIHSIATRVIKLAHAKSSVALAPALVETYSRLLVYMEIESLGIKGFISQLLPTVFKSHAWGILHTLLEMFSYRMHHIQPHYRVQLLSHLHTLAAVAQTNQNQLHLCVESTALRLITALGSSEVQPQFTRFLSDPKTVLSAESEELNRALILTLARATHVTDFFTGSDSIQGTWCKDILQTIMSFTPHNWASHTLSCFPGPLQAFFKQNNVPQESRFNLKKNVEEEYRKWKSMSNENDIITHFSMQGSPPLFLCLLWKMLLETDHINQIGYRVLERIGARALVAHVRTFADFLVYEFSTSAGGQQLNKCIEILNDMVWKYNIVTLDRLILCLAMRSHEGNEAQVCYFIIQLLLLKPNDFRNRVSDFVKENSPEHWLQNDWHTKHMNYHKKYPEKLYFEGLAEQVDPPVQIQSPYLPIYFGNVCLRFLPVFDIVIHRFLELLPVSKSLETLLDHLGGLYKFHDRPVTYLYNTLHYYEMHLRDRAFLKRKLVHAIIGSLKDNRPQGWCLSDTYLKCAMNAREENPWVPDDTYYCRLIGRLVDTMAGKSPGPFPNCDWRFNEFPNPAAHALHVTCVELMALAVSGKEVGNALLNVVLKSQPLVPRENITAWMNAIGLIITALPEPYWIVLHDRIVSVISSPSLTSETEWVGYPFRLFDFTACHQSYSEMSCSYTLALAHAVWHHSSIGQLSLIPKFLTEVLLPIVKTEFQLLYVYHLVGPFLQRFQQERTRCMIEIGVAFYDMLLNVDQCSTHLNYMDPICDFLYHMKYMFTGDSVKEQVEKIICNLKPALKLRLRFITHISKMEPAAVPPQAMNSGSPAPQSNQVPVSLPVTQ
As to B3, the binding result was “binds”.
